Experimental data reported in publication PMC9092267.
Results are given in words; binding and its absence hold for the method and conditions named. Binding seen in cells or lysates may run through a third protein. A yes stands for co-enrichment or nearness to the bait. Other partners may have been found.

Sequences of proteins named here, by UniProt entry; tags and fusion partners are left off.
UniProt P67870: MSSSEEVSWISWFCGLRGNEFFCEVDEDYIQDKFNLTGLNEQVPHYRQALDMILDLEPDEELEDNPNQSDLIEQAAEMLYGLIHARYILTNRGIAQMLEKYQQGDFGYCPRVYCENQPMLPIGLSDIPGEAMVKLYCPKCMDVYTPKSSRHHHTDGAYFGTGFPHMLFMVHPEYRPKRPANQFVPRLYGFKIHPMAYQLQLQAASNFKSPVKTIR

Target: GST-tagged CK2β, wild type (Homo sapiens) (UniProt P67870)
Experiment: affinity purification with mass spectrometry; Glutathione Sepharose 4B beads carrying GST-tagged CK2β in precleared whole HeLa lysate; label-free quantification; proteins obtained with GST only excluded; only the target purified

- binding: binds
B1: DVL1, endogenous (protein, UniProt O14640 1-695)
chain: MAETKIIYHMDEEETPYLVKLPVAPERVTLADFKNVLSNRPVHAYKFFFKSMDQDFGVVKEEIFDDNAKLPCFNGRVVSWLVLAEGAHSDAGSQGTDSHTDLPPPLERTGGIGDSRPPSFHPNVASSRDGMDNETGTESMVSHRRERARRRNREEAARTNGHPRGDRRRDVGLPPDSASTALSSELESSSFVDSDEDGSTSRLSSSTEQSTSSRLIRKHKRRRRKQRLRQADRASSFSSITDSTMSLNIVTVTLNMERHHFLGISIVGQSNDRGDGGIYIGSIMKGGAVAADGRIEPGDMLLQVNDVNFENMSNDDAVRVLREIVSQTGPISLTVAKCWDPTPRSYFTVPRADPVRPIDPAAWLSHTAALTGALPRYGTSPCSSAVTRTSSSSLTSSVPGAPQLEEAPLTVKSDMSAVVRVMQLPDSGLEIRDRMWLKITIANAVIGADVVDWLYTHVEGFKERREARKYASSLLKHGFLRHTVNKITFSEQCYYVFGDLCSNLATLNLNSGSSGTSDQDTLAPLPHPAAPWPLGQGYPYQYPGPPPCFPPAYQDPGFSYGSGSTGSQQSEGSKSSGSTRSSRRAPGREKERRAAGAGGSGSESDHTAPSGVGSSWRERPAGQLSRGSSPRSQASATAPGLPPPHPTTKAYTVVGGPPGGPPVRELAAVPPELTGSRQSFQKAMGNPCEFFVDIM
